Assay [1] deals with mesothelin (MSLN), full length (UniProt Q13421). The assay can be described thus: ELISA, supernatant.
The target of assay [2] is MSLN epitope domain 1 (UniProt Q13421). The assay can be described thus: ELISA, supernatant. In general terms: An ELISA detects its analyte on a solid surface through an enzyme-linked reagent.
In assay [3] the target is BCMA on RPMI8226 cells (UniProt Q02223). Kind of assay: flow cytometry. In general terms: Flow cytometry measures light scatter and fluorescence of single cells or particles in a stream.
Assay [4] concerns the target BCMA-His (human) (UniProt Q02223). The assay can be described thus: ELISA.
Assay [5] has as its target BCMA-Fc (human) (UniProt Q02223). The assay can be described thus: ELISA.
Assay [6] has as its target MSLN epitope domain 2 (UniProt Q13421). The assay can be described thus: ELISA, supernatant.

Chains of the proteins cited; added tags and fusions are not shown. Lines headed by an entry give the natural chain unless they say otherwise; changes in a name come on top. A line that says so, or that is headed by a name, gives the form on record, which may keep a tag or linker. Residues count along the entry.
MSLN epitope domain 1 (Q13421, residues 296-390): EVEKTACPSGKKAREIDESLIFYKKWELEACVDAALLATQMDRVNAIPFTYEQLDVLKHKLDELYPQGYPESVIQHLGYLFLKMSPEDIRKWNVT
mesothelin (MSLN), full length (Q13421, form named): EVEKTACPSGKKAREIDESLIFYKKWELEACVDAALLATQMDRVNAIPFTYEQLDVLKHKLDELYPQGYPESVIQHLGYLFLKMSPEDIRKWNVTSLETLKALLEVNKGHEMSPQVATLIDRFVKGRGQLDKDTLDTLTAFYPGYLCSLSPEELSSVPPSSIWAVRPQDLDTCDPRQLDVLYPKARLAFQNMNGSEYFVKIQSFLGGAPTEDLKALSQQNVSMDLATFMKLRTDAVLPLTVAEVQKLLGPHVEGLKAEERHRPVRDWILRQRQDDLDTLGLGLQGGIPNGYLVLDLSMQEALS
MSLN epitope domain 2 (Q13421, form named): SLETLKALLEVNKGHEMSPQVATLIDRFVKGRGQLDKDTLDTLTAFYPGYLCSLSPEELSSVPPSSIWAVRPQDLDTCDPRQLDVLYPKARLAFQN
UniProt Q02223: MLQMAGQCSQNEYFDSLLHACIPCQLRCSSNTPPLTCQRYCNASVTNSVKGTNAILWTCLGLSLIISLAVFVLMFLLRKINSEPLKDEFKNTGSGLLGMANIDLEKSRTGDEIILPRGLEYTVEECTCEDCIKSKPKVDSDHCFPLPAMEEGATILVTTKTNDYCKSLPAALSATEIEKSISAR
BCMA-Fc: residues 1-54 of Q02223

Results are given in words; binding and its absence hold for the method and conditions named. Some entries that bind do so weakly or less than the wild type.

B1: NBL501#002 (VHH)
VHH: QVQLVESGGGLVQAGGSLRLSCAASISIRRINAMGWYRQAPGKERELVAVISSPNKTLYADSVKGRFTISKDNYTNTLYLQMNSLKPEDTAMYYCSAWRIGVDTTDYYGQGTQVTVSS
Turning to B1, the binding entry in assay [1] and in assay [2] was “binds” throughout.

B2: NBL507-A1L1-P1R2-1D2-(9)-PME207-SEQF_A02 (VHH)
VHH: QVQLVESGGGLVQPGGSLRLSCAASGFTFSSSAMSWARQAPGKGLECVSDIYPDGTSSYADSMKGRFTISRDNTRNTMYLQMNVLKPEDTATYYCVIGRGGYAMGDRRLRGQGTQVTVSS
B2: the binding entry in assay [3], in assay [4] and in assay [5] was “binds” throughout.

B3: NBL507-A1L1-P1R2-1A1-(1)-PME207-SEQF_A01 (VHH)
VHH: EVQLVESGGGLVQPGGSLRLSCAASGFTFRSSAMSWARQAPGKGLEWVSDIYPDGRTDYADSIKGRFTMSRDNAKNTVYLLMDSLKPEDTAVYHCQVGRYVSGVYYQPRGQGTQVTVSS
B3: the binding result in assay [3], in assay [4] and in assay [5] was “binds” in each case.

B4: NBL501#009 (VHH)
VHH: EVQVVESGGGLVQAGGSLRLSCVASGFTFSVAAMRWYRQAPGKQREWVASAFSDGNLHYEDFVKGRFTISRDDAKNTLYLQMDSLKPEDTAVYYCNAGTPSRAYWGQGTQVTVSS
In the case of B4, the binding entry in assay [1] and in assay [6] was “binds” in each case.

B5: NBL501#004 (VHH)
VHH: EVQVVESGGGLVQAGGSLRLSCVPSGSISSIYAMGWYRQALGPERELVAAQTLGGGTYYANPVKGRFTIYRDNDKNTLYLQMNNLKPEDTAMYYCATPGEHWGSSDVTNWGQGTQVTVSS
Regarding B5, the binding result in assay [1] and in assay [2] was “binds” in each case.

B6: NBL501#008 (VHH)
VHH: QVQLVESGGGLVQAGGSLRLSCVASGIVFRLNAMGWFRQAPGRERELVATIASGGWAYYGDTMSGRVTISRDNDKNTLYLEMNSLKPEDSAMYYCSAGGARPHSWGQGTQVTVSS
Regarding B6, the binding entry in assay [1] and in assay [2] was “binds” each time.

These data come from patent US20230002757A1.
